{
  "source": "paper PMC5793130",
  "about": "“The Peptide PnPP-19, a Spider Toxin Derivative, Activates μ-Opioid Receptors and Modulates Calcium Channels” (Toxins, 2018)",
  "test_system": "calcium channels in dorsal root ganglion (DRG) neurons",
  "assay_type": "cell-based, rat",
  "data": [
    {"smiles": "CN1CC[C@]23c4c5ccc(O)c4O[C@H]2[C@@H](O)C=C[C@H]3[C@H]1C5", "note": "[morphine]", "values": [
      {"measurement": "effect on calcium current density", "result": "induced inhibition of calcium channels"}
    ]}
  ]
}
